No constants are given. Whether binding was seen depends on the method and setting. In cells and extracts the contact can be indirect. Some results given as binding are weak or reduced against the parent protein; the word gives no strength. Sequences can lack the tags named with a protein.

Consider one molecule from article PMC6523062.

The target in assay [1] is T1, cYFP-KIN11 (KIN11 fused to the C-terminal half of YFP) (Arabidopsis) (UniProt P92958).
T1 sequence: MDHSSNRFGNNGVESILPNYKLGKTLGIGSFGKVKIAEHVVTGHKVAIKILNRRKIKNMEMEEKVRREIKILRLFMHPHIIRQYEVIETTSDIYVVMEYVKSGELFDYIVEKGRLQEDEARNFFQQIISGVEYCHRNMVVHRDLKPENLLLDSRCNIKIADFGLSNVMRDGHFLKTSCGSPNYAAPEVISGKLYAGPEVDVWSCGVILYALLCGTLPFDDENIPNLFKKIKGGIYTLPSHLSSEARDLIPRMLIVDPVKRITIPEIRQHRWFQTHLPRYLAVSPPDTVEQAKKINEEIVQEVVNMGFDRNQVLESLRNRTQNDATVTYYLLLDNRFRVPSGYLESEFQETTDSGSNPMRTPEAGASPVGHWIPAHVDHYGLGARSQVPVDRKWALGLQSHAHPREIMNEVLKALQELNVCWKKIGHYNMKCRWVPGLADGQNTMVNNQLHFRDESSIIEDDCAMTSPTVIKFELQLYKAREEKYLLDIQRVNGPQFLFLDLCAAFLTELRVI
As to the kind of experiment: split reporter; BiFC (split YFP), transient co-expression in Nicotiana benthamiana leaf epidermal cells under a DEX-inducible promoter; normal conditions: DEX and DMSO, no antimycin A.

Assay [2] deals with T1, cYFP-KIN11 (KIN11 fused to the C-terminal half of YFP) (Arabidopsis). Description: split reporter; BiFC (split YFP), transient co-expression in Nicotiana benthamiana leaf epidermal cells under a DEX-inducible promoter; leaves treated with DEX and 20 μg/ml antimycin A.

B1: nYFP-SOG1 (SOG1 fused to the N-terminal half of yellow fluorescent protein) (protein, UniProt Q6NQK2 1-449)
chain: MAGRSWLIDSNRIATKIMSASASSDPRQVVWKSNPSRHCPKCQHVIDNSDVVDDWPGLPRGVKFDPSDPEIIWHLLAKSGLSGLSSHPFIDEFIPTVNQDDGICYTHPKNLPGVKSDGTVSHFFHKAIKAYSTGTRKRRKIHDDDFGDVRWHKTGRTKPVVLDGVQRGCKKIMVLYGGKAVKTNWVMHQYHLGIEEDEKEGDYVVSKIFYQQPQQLVVKRGDKAEQEVSEDIFAAVTPTADPVTPKLATPEPRNAVRICSDSHIASDYVTPSDYVSAHEVSLAETSEVMCMEDEVQSIQPNHERPSSGPELEHGLENGAKEMLDDKEEQEKDRDNENQGEEDPTWFDSGSQFILNSQQLVEALSLCDDLLGSQDREENTNSGSLKDKQPCIADYAHLGPEDFKRDLEECQKIVLDPSNIELDTPPEFRLSQLEFGSQDSFLAWGTGKTD
On to B1, for which the binding result was “no binding (condition: without antimycin A (DEX and DMSO))” in assay [1]; “binds” in assay [2].
